The campaign covered roughly 53,000 sequences. About 3,700 (7%) were called active.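 Rule for the calls: active = gene knockdowns whose robust z-score for IL-1 alpha signal is at least 2 or at most -2, so actives lie on both sides; inactive = the rest.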 The list shows a part of the results.
Experiment: Components of the Cytosolic LPS Sensing Pathway: Gene Identification via Genome-wide siRNA Screen
Details: RAW264.7 macrophages, IL-1a HTRF, actives lie on both sides, screened at 100 nM (by protocol), cells primed 5 h with Pam3CSK4 first
From the text: Non-canonical inflammasome activation by cytosolic LPS is a critical component of the host response to Gram-negative bacterial infection, however we lack a comprehensive understanding of the cellular processes that control this pathway. Here we describe a genome-wide siRNA screen to identify genes regulating the mouse macrophage IL-1 alpha response to cytosolic LPS.
RAW264.7 cells were maintained in complete DMEM media, comprising DMEM with 4.5 g/L glucose, 10% FBS (Gemini Bio-Products, West Sacramento, CA), 2 mM Glutamine (Lonza) and 20 mM HEPES (Lonza), hereafter complete DMEM.
The RNAi screen was conducted in 384-well format using the Ambion Silencer Mouse Genome siRNA Library (#4391425), which consists of three unique, nonoverlapping, nonpooled siRNAs for each of 17,000 gene targets. siRNA reagents ([…]) were stamped into 384-well white flat-bottom microplates (Corning, 3570) using a Velocity11 VPrep liquid handling system (Agilent) integrated into a BioCel robotic platform (Agilent) in columns 1-22, leaving columns 23-24 empty for negative (Ambion, Negative control #1) and positive (mouse Casp4) controls, respectively. The median value of each plate's negative control column was used to normalize sample wells, and the positive control was used to assess transfection efficiency and assay performance.
Lipofectamine RNAiMAX Transfection Reagent ([…]; Invitrogen) was added in […] serum-free, antibiotic-free media to plate wells using a Thermo Scientific Matrix WellMate and Microplate Stacker. Plates were incubated for 45 min at room temperature to allow for the sufficient formation of siRNA-lipid complexes. Cells were seeded at a density of 1x10^4 cells per well in 20 microL media containing 20% (vol/vol) FBS without antibiotics. The final concentration of siRNA in each well was 100 nM. Cells were cultured for 48h at 37 degrees C in 5% CO2 before addition of […] of TLR ligand Pam3CSK4 for 5 hours. The medium was then removed, replaced with […] growth media and cell were transfected with […] of LipidA and TransIT-TKO (Mirus) for 24 hour. At the end of the LipidA treatment, […] of supernatant was transferred to a 384 Greiner Bio-one non-binding low volume plate and […] of IL-1a HTRF reagent (Cisbio, 62MIL1APEH) was added and incubated at room temperature overnight. The plates were read on an EnVision plate reader (PerkinElmer). Cell viability was measured by adding 20ul Cell Titer Glo to the original plate and running a luminescence read on the EnVision. The quantified IL-1a signal for each siRNA gene-targeted well was divided by the median of the negative control wells and multiplied by 100 to achieve a negative control normalized value for each well/siRNA. This normalized value was then used to generate a robust z-score by first taking the log of each value and then by subtracting the median and dividing by the […].

z-score, inactive:
GGUCAGUCGGUUGUUACUATT against Ttpal -1.93, GCUCUAUAGUUAAUUAGGGTT against Rbm3 -0.0883, CGUUUGUACCUGCGGAAAATT against Olfr270 0.76, CCACAUGACCUUACAGCCATT against Zdhhc8 -1.54, GCAGGUCUUACCAGAUCGATT against Thap3 -0.765, GGCUGCCUUGCUGAUUUGATT against Boc 0.762, GGACAAGACUCUCAGUUCATT against Atpaf1 0.77, GGUACCAAUAAUGGAUUUUTT against Ambn 1.1, GGCCUUUUUUAAAAGAAGCTT against Esr2 -0.0947, GCGGACCUGCUGUUAUGAATT against Sema3b 1.34, GCACCUCUCAAAGAGUUUATT against Rin2 -1.41, GGUAUAGCAAGUUAAAAGATT against Hip1 0.39, GGCACAGUUAUGCAAAAUATT against Cpa3 -0.854, GGAUCUGAAGCAUUUUAAATT against Nlrp10 -0.832, GGAGAUCUAUCUGGUCCAUTT against Ptrh1 -0.66, GGAUGAUGAUAACUUACAGTT against Mro 0.777, GGCUGAAAAAUUUCAUGAUTT against Ppa2 -0.547, GCUACACUCCAAGCAAAAUTT against Anapc10 -0.819, GGCACUGAAAAGAAAGAAGTT against Chmp4c -1.74, GGGUUUACUGGAAAAUAAATT against Minar2 -1.27, GGGAUCAUGUAAAUUCCACTT against Pde9a 0.924, GCAUUGUUUGGGAAUGCCCTT against Olfr1396 -0.403, CCCAUGAUGCCAUCUUUAATT against 2410002F23Rik -1.03, GGAGGCCUUGUACUUACACTT against Rspo1 1.26, GGUAUUUAUGAAGCACACATT against Clcn3 0.451, GAAUCUCCAUUCUCCCAUGTT against Olfr1301 0.43, GGUGUCUGCCAGGAGAAAUTT against Dexi 1.11, GGUUCCUCUCAAUUCCACCTT against Cav3 -1.88, GGAGACAGAGCAUGUGGUATT against Fam13c -1.59, GGAGGAACAGAAGAAACUCTT against Tma7 -0.0481, GGUUUGAUGUGGAAUCAUGTT against Tmem109 -0.517, GGUGCAAUCGUGUUGAGCUTT against Dap3 1.06, GGUGGCAUUAAGGAAAUCATT against Olfr147 -0.0185, GGACUUUCCAGUAAGGAAATT against Mapk8ip1 0.996, CGCGCAGAAUCAGAGCGAUTT against Pdcd2l 0.109, GGAGAAAAAGUAAAUGGUGTT against Psmd7 -1.65, GCUAAGUUGCUUUUCAGUGTT against H4c9 0.0187, GCAGAACCAUACUAUUUGCTT against Atg5 -0.464, GAAUAUGGAGGCACCAAAGTT against Hspe1 0.00688, CCUUAGCCCUCAUUCACAGTT against Lrrc75a 0.806, CCCUUUCUGUACUCUUAUCTT against Mlx 1.76, GGAAAGACCACAUUAUUAATT against Orc4 0.0347, GGAAAUUUGAAGCAAGAAGTT against Mertk -1.21, CCCAGUCAGAGAUCGAUACTT against Naglu 1.75, GGAGAUUGACGGUGUGAUGTT against Cacna2d2 1.09, GGCCUCACACGUCUUAAAATT against Prkcz -0.864, GGAGAAUGGCAAGAAUGAATT against Gpx1 -1.79, CGUAGACUUAACCUACAAATT against Dync2h1 1.88, GCAUGUCCUCUAUCUUCUCTT against Vmn1r205 -1.76, GCGGACUCUUUUCAUCAAUTT against Tmem63b 1.14, GGGUUACCUCCUGACUGUUTT against Olfr930 -1.9, GGAAAGAGAAUAAAUAAGGTT against Amhr2 -0.923, GGAUAUGGAUCUUAUGAAGTT against Lrriq4 0.577, GGUGACUCAGAGAGUAAAATT against D830050J10Rik -0.667, GGAUUUGGAAAAAGUGUUUTT against Hprt -1.21, CGGGAAACAUUAGUGAAUUTT against Mapre2 0.383, GGGAGAUAAAACCAACUUUTT against Fkbp3 1.2, AUUGCAUUGUAUUCACUUGTT against Psg22 0.777, GGUUUGACUGUCAGUAUUUTT against Cds1 1.03, GGAGUGCUGAUAAAAGAAGTT against Atp5mpl -0.952, GGAGAUGAAGUUAAAGCGATT against Slc26a6 0.619, GGAGAGGGAUUAGCCAGUATT against Ank3 0.932, CGGUACUUAGACUGCAUCATT against Etnppl 0.914, GGGACCGUGAAGAAAAUUUTT against Tmed11 -0.926, CCAAUCUGAAGUGCUACUATT against Trim42 0.368, GGUGUCAUCUUCCUGCUUGTT against Olfr93 0.476, GGUUAUUUCUAAAGUUCCUTT against Sphk1 -0.0567, GGAAGUGAGGGAAGAAAUUTT against Zcchc9 0.0628, GGAUCUGGUACCCACCCAATT against Jak2 -1.63, GGGUCAUGAAAAAACAUUATT against Cyb5b 0.915, GGGAGUAAAGAAAAUGUUATT against Atxn2 -0.112, GGUGUGAAAAGAGGAGGAGTT against Zfp65 -0.477, CGAACAAGCCAUGUUUACATT against Gvin1 0.811, GGCAACACAAGUGAGAAUGTT against Zfp768 -1.23, GCCCUUAACAAGAAUGAGUTT against Six6 -0.73, CCAAAGUCAUCGAUGCAAATT against Cst6 0.493, GCAUUUUGAAUCACUUGAATT against Brca2 0.314, GGGAAAAGAAAAGAGGACATT against Serf1 -1.28, CCUUCCAAGAUCAAUAAGATT against Epb42 1.2, GGUUAUCCAACCUAGAAUATT against Tmlhe 0.74, CCCGGAGUACAGUGACUUUTT against Htra1 0.545, GGUGAGAUCUCAAUGGAAATT against Mfap1a -0.471, GCCACUGGGACCUAUUGAUTT against Glyctk -0.141, GCUGGAUACUAAUUGCUUATT against Parva 1.27, CCAUUCUCUACAUUCACUCTT against Olfr944 -1.24, GGGUUACGUACAACACAUUTT against Mtf1 1.66, CGCCAUAGUUGGUUUUGUUTT against Scamp4 1.2, GCUUUUCAGAGCGAUCUCATT against Vps52 -1.12, GGACAUCCUUCACCUCACATT against Ptges -1.97, GGAAGAAAAUCUGAAGCUATT against Scoc -0.364, GCUGCAGGAUAUCGCAAAGTT against Olfr1454 -0.177, GGCUGUGAAAGCAUAUGUGTT against Foxp2 -0.852, GGUAUUCGAGCAGAUAUAUTT against Apol10b 0.0735, GGUCUUCUAUCUGAAAAUGTT against Ywhaq 0.344, GUUUGAUGAUCACUGGGUCTT against Aqp2 1.6, GCACGACGAGACAUUUUUGTT against Trmt112 0.99, GGUAUCCAUACUUCCACCCTT against 4930474N05Rik 0.0659, ACUGUUGCAGCCUCUCUCATT against 1700029I15Rik -0.827, CCUGUAAUGAGUAUGACAUTT against Commd10 0.397

z-score, active:
GGAGGCCAUCACACUUAGATT against 4933421I07Rik -2.27, GGACUUUGAUCAGCUGUCUTT against Tmem17 -2.12, CCGAGCAGUAUGUGAACGUTT against Cela1 3.56, GGGUUUUUUCCAGUCAUCUTT against Nfx1 -2.02, CCAAAACAUUAACCUGAAGTT against Pla2g6 -2.34, GGUGGUCUGAGAAAUACUCTT against Czib 2.06, CGAGAGUGAUGCGCAUUUCTT against Sf3b5 -3.04, GCUUUACCUGCAUAUUCCATT against Nradd -2.04

Reference: PubChem BioAssay AID1508600 (Functional Genomics Laboratory (NCATS/FGL), 2020)
